# Reference: PubChem BioAssay AID2685 (National Center for Advancing Translational Sciences (NCATS), 2010)
# The list shows a part of the results. These are further read-outs of the screen, such as a control signal, another cell line or another target. No call is given for them. The list favours compounds with an active or inconclusive main result. Potencies come from curve fits of mixed quality, noted in brackets.
# Experiment: qHTS Assay for Lipid Storage Modulators in Drosophila S3 Cells;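 on cell number change: cells counted by Cell Tracker Red CMTPX staining in the red channel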
# Conditions: BODIPY lipid droplet fluorescence, 18-24 h; for cell number change: measured here: cell count max response, cells fed with added oleic acid
# How it was run: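 Drosophila S3 cells loaded with oleic acid (400 uM, as added) and compounds at several concentrations; lipid droplets imaged by 488-nm laser-scanning cytometry, 500–530 nm intensity and object ratio to cell channel. Percent activity normalized to 20 uM Triacsin C.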
# [1] = measured here: cell number channel AC50, cells fed with added oleic acid
# [2] = measured here: lipid fluorescence (Fed channel) AC50, cells fed with added oleic acid
structure (smiles),measurement,setting,value
CN1CCN(C(=O)c2ccc(COc3ccc(Cl)cc3Cl)cc2)CC1,AC50,[1],"6.51 µM [rising, single point]"
Cc1ccc(CNC(=O)C2CC(=O)N(C3CCCCCCC3)C2)cc1 (centres undefined),cell number change,,-4.52%
same,AC50,[1],"5.17 µM [rising, single point]"
same,AC50,[2],"29.1 µM [falling, single point]"
COc1ccc(-c2csc(N(CC3CCCO3)C(=O)c3ccco3)n2)cc1 (centres undefined),AC50,[1],"6.51 µM [rising, partial curve, poor fit]"
same,AC50,[2],"6.51 µM [rising, single point]"
CCOC(=O)CSc1nnc(-c2cccc(Cl)c2)n1CC,cell number change,,-1.79%
Cc1ccc(S(=O)(=O)N(C)Cc2ccc(C(=O)N/N=C/c3ccc(OC(F)F)cc3)cc2)cc1,cell number change,,83.3%
same,AC50,[1],"29.1 µM [rising, partial curve, poor fit]"
CCC(=O)Nc1cc(-c2nn3c(C)nnc3s2)ccc1C,cell number change,,-0.572%
same,AC50,[2],"4.61 µM [rising, full curve, poor fit]"
CCn1c(SCC(=O)NCc2ccco2)nnc1C1CCCC1,cell number change,,3.87%
same,AC50,[2],"29.1 µM [rising, single point]"
O=C1c2ccccc2C(=O)N1CCC(c1ccc(F)cc1)c1ccco1 (centres undefined),cell number change,,71.2%
same,AC50,[1],"23.1 µM [rising, single point]"
CCOC(=O)C1CCN(Cc2ccc(F)c(Br)c2)CC1,cell number change,,-1.75%
same,AC50,[2],"1.3 µM [rising, full curve]"
Cc1ccc(-c2nnc(NC(=O)c3ccco3)s2)cc1,cell number change,,28.7%
same,AC50,[2],"18.4 µM [rising, partial curve]"
CCCn1cc(S(=O)(=O)c2ccccc2)c(=O)c2cc(OCC)ccc21,AC50,[2],"29.1 µM [falling, single point]"
O=C(c1ccc2c(c1)OCO2)[C@@H]1[C@@H]2C(=O)N(C3CCCCC3)C(=O)[C@@H]2C2c3ccccc3C=CN21 (some centres undefined),cell number change,,-10.8%
same,AC50,[2],"16.4 µM [falling, partial curve, poor fit]"
Cc1ccc2c(c1)c1ncn(CCC3=CCCCC3)c(=O)c1n2C,cell number change,,11.7%
same,AC50,[2],"1.46 µM [rising, full curve]"
Fc1ccccc1N1CCN(c2nc3ccccc3n3nnnc23)CC1,cell number change,,66.8%
same,AC50,[1],"5.17 µM [rising, full curve]"
O=C(CN1CCOCC1)OCCCc1ccccc1,cell number change,,7.45%
same,AC50,[2],"29.1 µM [falling, partial curve, poor fit]"
COc1cc(-c2nnc(SC(C)C(=O)Nc3c(C)n(C)n(-c4ccccc4)c3=O)o2)cc(OC)c1OC (centres undefined),AC50,[2],"20.6 µM [falling, partial curve]"
O=C(COc1ccccc1F)Nc1ccc(S(=O)(=O)N2CCCC2)cc1,cell number change,,-43.3%
same,AC50,[1],"23.1 µM [falling, partial curve]"
CCc1nc(C)ccc1OC(=O)C12CC3CC(CC(C3)C1)C2,cell number change,,-24.1%
same,AC50,[2],"16.4 µM [falling, single point]"
Cc1cc(/C=C2/C(=N)N3C(=NC2=O)SN=C3S(C)(=O)=O)c(C)n1-c1ccccc1,cell number change,,-10.5%
same,AC50,[2],"0.058 µM [falling, full curve, poor fit]"
COc1ccc(OC2CCN(S(=O)(=O)c3ccc(OC)c(OC)c3)CC2)cc1,cell number change,,-8.51%
O=C(Nc1ccc(Cl)cc1)C1CC(=O)n2c(nc3ccccc32)N1 (centres undefined),cell number change,,5.02%
same,AC50,[1],"2.91 µM [rising, single point]"
CN(Cc1ccccc1)C(=O)COC(=O)C1=NNC(=O)CC1,cell number change,,17.2%
same,AC50,[1],"0.326 µM [rising, single point]"
O=C(CC1Oc2ccccc2NC1=O)NC1CC1 (centres undefined),cell number change,,-13.6%
same,AC50,[2],"29.1 µM [falling, single point]"
COc1ccccc1NC(=O)/C=C/c1ccc2c(c1)OCO2,cell number change,,10.3%
same,AC50,[2],"0.517 µM [falling, single point]"
CC(C)CCN1C(=O)CC(NNC(=O)c2ccc(S(=O)(=O)N3CCCC3)cc2)C1=O (centres undefined),cell number change,,0.18%
same,AC50,[1],"1.64 µM [falling, partial curve]"
same,AC50,[2],"2.59 µM [falling, partial curve]"
CCOC(=O)Cc1csc(NC(=O)CSc2nc3cccnc3n2CC)n1,cell number change,,32.5%
same,AC50,[1],"5.8 µM [rising, full curve, poor fit]"
same,AC50,[2],"2.31 µM [rising, full curve]"
O=C(Nc1ccc2oc(-c3ccc4ccccc4c3)nc2c1)c1cccs1,cell number change,,-16%
same,AC50,[1],"1.16 µM [rising, partial curve]"
CCS(=O)(=O)c1ncc(Cl)c(C(=O)Nc2ccc(S(=O)(=O)N(C)c3ccccc3)cc2)n1,cell number change,,45.4%
same,AC50,[1],"8.2 µM [rising, partial curve]"
Cc1ccc(/C=C/c2onc(C)c2S(=O)(=O)N2CCC(C(=O)N3CCN(C)CC3)CC2)cc1,cell number change,,-6.27%
CC(C)c1ccc(NS(=O)(=O)c2cn(C)c(=O)n(C)c2=O)cc1,cell number change,,3.92%
CC(C)NCCCOc1ccc(Cl)cc1Br,cell number change,,-22.8%
Cc1cc(C)n2[nH]c(=O)c(N=Nc3cccc(Cl)c3)c2n1,cell number change,,-49.6%
same,AC50,[1],"5.8 µM [falling, partial curve, poor fit]"
same,AC50,[2],"6.51 µM [falling, partial curve, poor fit]"
Cc1noc(C)c1CSCC(=O)N1CCN(c2ccc(F)cc2)CC1,cell number change,,-26.7%
CC(C)C(NCc1c(Cl)cccc1Cl)C(=O)O (centres undefined),cell number change,,-24%
same,AC50,[1],"3.66 µM [falling, full curve, poor fit]"
same,AC50,[2],"4.11 µM [falling, full curve, poor fit]"
O=C(NCC(=O)N1CCC(Cc2ccccc2)CC1)c1ccc(Cl)cc1,cell number change,,-16.4%
same,AC50,[1],"0.116 µM [falling, full curve, poor fit]"
same,AC50,[2],"29.1 µM [rising, single point]"
O=C(Cc1ccc(Cl)cc1)Nc1ccc(N2CCN(C(=O)c3ccco3)CC2)cc1,cell number change,,-35.1%
same,AC50,[1],"16.4 µM [falling, partial curve, poor fit]"
N#CCCn1cc(C(=O)O)c(-c2ccc3ccccc3c2)n1,cell number change,,23%
same,AC50,[2],"29.1 µM [rising, single point]"
C=CCOc1ccc2ccccc2c1CNc1ncn[nH]1,cell number change,,205%
same,AC50,[1],"0.411 µM [rising, full curve]"
same,AC50,[2],"0.517 µM [rising, full curve, poor fit]"

# Given tab-delimited: entries from further up.
structure (smiles)	measurement	setting	value
COc1ccc(-c2csc(N(CC3CCCO3)C(=O)c3ccco3)n2)cc1 (centres undefined)	AC50	[2]	6.51 µM [rising, single point]
Cc1ccc(S(=O)(=O)N(C)Cc2ccc(C(=O)N/N=C/c3ccc(OC(F)F)cc3)cc2)cc1	AC50	[1]	29.1 µM [rising, partial curve, poor fit]
CCn1c(SCC(=O)NCc2ccco2)nnc1C1CCCC1	cell number change		3.87%
same	AC50	[2]	29.1 µM [rising, single point]
O=C(c1ccc2c(c1)OCO2)[C@@H]1[C@@H]2C(=O)N(C3CCCCC3)C(=O)[C@@H]2C2c3ccccc3C=CN21 (some centres undefined)	cell number change		-10.8%
COc1cc(-c2nnc(SC(C)C(=O)Nc3c(C)n(C)n(-c4ccccc4)c3=O)o2)cc(OC)c1OC (centres undefined)	AC50	[2]	20.6 µM [falling, partial curve]
O=C(COc1ccccc1F)Nc1ccc(S(=O)(=O)N2CCCC2)cc1	AC50	[1]	23.1 µM [falling, partial curve]
O=C(Nc1ccc(Cl)cc1)C1CC(=O)n2c(nc3ccccc32)N1 (centres undefined)	AC50	[1]	2.91 µM [rising, single point]
CN(Cc1ccccc1)C(=O)COC(=O)C1=NNC(=O)CC1	AC50	[1]	0.326 µM [rising, single point]
COc1ccccc1NC(=O)/C=C/c1ccc2c(c1)OCO2	AC50	[2]	0.517 µM [falling, single point]
CC(C)CCN1C(=O)CC(NNC(=O)c2ccc(S(=O)(=O)N3CCCC3)cc2)C1=O (centres undefined)	AC50	[2]	2.59 µM [falling, partial curve]
CCOC(=O)Cc1csc(NC(=O)CSc2nc3cccnc3n2CC)n1	cell number change		32.5%
same	AC50	[1]	5.8 µM [rising, full curve, poor fit]
same	AC50	[2]	2.31 µM [rising, full curve]
CC(C)C(NCc1c(Cl)cccc1Cl)C(=O)O (centres undefined)	cell number change		-24%
same	AC50	[1]	3.66 µM [falling, full curve, poor fit]
O=C(Cc1ccc(Cl)cc1)Nc1ccc(N2CCN(C(=O)c3ccco3)CC2)cc1	cell number change		-35.1%
